At least one compound was matched to its structure with a doubt left.
What was measured:
[1] = system: Daudi cells; experiment: Cell cycle analysis, Daudi; type: cell-based
[2] = system: HeLa cells; experiment: BrdU incorporation DNA synthesis assay (FACS), HeLa; type: cell-based, human; conditions: 4 hours treatment then one-hour BrdU
Protocol: BrdU-labeled cells were analyzed by FACS. The percentage of BrdU-positive cells is indicated.
HeLa cells were treated with S12, aphidicolin, or DMSO (control) for 4 hours. BrdU was then added to the medium followed by an additional incubation of 1 hour. The amount of BrdU was examined by staining with anti-BrdU antibody and FACS analysis. The percentage of BrdU-positive cells is shown.
To establish the specificity of the biological activities of the Survivin targeting we examined whether the compounds affect DNA synthesis. HeLa cells were treated with Aphidicolin, S2 or DMSO for 4 hours, followed by one-hour incubation with BrdU. The cells were then collected, fixed and stained with FITC-labeled anti-BrdU antibody.

[3] = system: U87ΔEGFR cells; experiment: PI/FACS sub-G1 cell death, U87ΔEGFR; type: cell-based; conditions: 10 μg/ml, 12 hours
[4] = system: HeLa cells; experiment: Cell cycle analysis of DNA content by PI staining and FACS, HeLa; type: cell-based, human; conditions: FACS DNA content
Protocol: FIG. 7 illustrates the effect of S2 or S12 on cell cycle progression. HeLa cells were treated with S2, S12, S10, S1 (control compound), or DMSO (control), propidium iodide (PI) staining and FACS analysis were performed to quantify the DNA content of cells.
(§1) FIG. 9 illustrates the effect of S12 on mitosis. (A) HeLa cells were treated with S12, S2 or DMSO for 15 hours. The cells were then fixed and subjected to immunostaining using antibodies specific for Aurora B (green) and Survivin (red). DNA was stained with DAPI. Chromosome misalignment is indicated with the arrowheads. (B) Percentage of S12-treated cells in mitosis, in metaphase, in anaphase/telophase, or with misaligned chromosomes. (C) Percentage of S2-treated cells in mitosis, in metaphase, in anaphase/telophase, or with misaligned chromosomes. (D) HeLa cells were treated with S12 (10 μg/ml) or DMSO (control) for 15 hours. Cells were examined by PI staining of DNA content by FACS analysis.
FIG. 17 illustrates (A) FACS analysis of DNA content of HeLa cells treated with SBDO3. Note the accumulation of cells at the G2/M stage. Cell death was also observed (sub-G1 population); (B) Immuno-fluorescence microscopy analysis of cell treated with SBDO3. […]
We analyzed distribution of cells in the different stages of the cell cycle by FACS. […]
We also conducted immuno-fluorescence studies on SBDO3 treated HeLa cells.

[5] = system: U87 cells; experiment: Cell cycle analysis, U87; type: cell-based
[6] = system: U87T691 cells; experiment: PI/FACS sub-G1 cell death, U87T691; type: cell-based; conditions: U87T691, 10 μg/ml, 12 hours
[7] = system: Raji; experiment: Cell cycle analysis, Raji; type: cell-based
[8] = system: AsPC1 pancreatic cancer cells; experiment: MTT tumor cell proliferation assay, AsPC1; type: cell-based, human; conditions: AsPC1, 5, 10, 20, or 50 μg/ml for 48 hours
Protocol: FIG. 3 illustrates the effect of S2 and its analogs on tumor cell proliferation. Cells were treated with DMSO or Survivin targeting molecules at the indicated concentration for 48 hours. The percentage of viable cells was evaluated by MTT assay. (A) AsPC1; (B) HeLa; (C) SKBR3; (D) DAOY.
FIG. 18 illustrates the effect of SBDO3, SN2, or SDC1 on tumor cell proliferation. (A) AsPC1 cells were treated with DMSO or the Survivin targeting molecules SBDO3 or SN2 at the indicated concentration for 48 hours. (B) SKBR3 cells were treated with DMSO or SDC1 for 48 hours. The percentage of viable cells was evaluated by MTT assay.
S2 and its analogs (S10, S11, S12, and S13) were tested for the ability to inhibit tumor cell proliferation by MTT assay. The AsPC1 pancreatic cancer cells were treated with DMSO, a control molecule SC2, or the Survivin-targeting compounds at the concentration of 5, 10, 20, or 50 μg/ml for 48 hours. The number of viable cells was evaluated by MTT.
SBDO3, SN2 and SDC1 were tested for the ability to inhibit tumor cell proliferation by MTT assay. The AsPC1 pancreatic cancer cells were treated with DMSO or the Survivin-targeting compounds at the concentration of 5, 10, 20, or 50 μg/ml for 48 hours. The number of viable cells was evaluated by MTT.

[9] = system: HeLa cells; experiment: Immunofluorescence microscopy of mitosis and spindle formation, HeLa; type: cell-based, human
Protocol: FIG. 8 illustrates the effect of S2 on mitotic spindle formation. HeLa cells were treated with S2 or DMSO for 15 hours. The cells were then fixed and subjected to immunostaining using the anti-β-Tubulin (green) and the anti-Survivin (red). Representative fluorescent microscopy images are shown. Note that short microtubule bundles form in S2-treated cells.
as §1
FIG. 17 illustrates (A) FACS analysis of DNA content of HeLa cells treated with SBDO3. Note the accumulation of cells at the G2/M stage. Cell death was also observed (sub-G1 population); (B) Immuno-fluorescence microscopy analysis of cell treated with SBDO3. Note that the microtubule bundles of the mitotic spindle are disorganized. The chromosomes are not aligned properly and cells cannot go through metaphase.
FIG. 19 illustrates immunofluorescence studies of Survivin localization. (A) Untreated HeLa cells were subjected to immunostaining using a monoclonal anti-beta-Tubulin antibody (green) or a polyclonal anti-Survivin antibody (red). Images of cells at various stages of mitosis are shown. (B) HeLa cells were treated with S2 for 6 hours. Cells were immunostained with anti-beta-Tubulin antibody (green) or a polyclonal anti-survivin antibody (red). Note that localization of Survivin to the midbody was not affected by S2.
The effect of S2 and its analogs on the progression of cell cycle was examined by immunofluorescence microscopy. HeLa cells were plated on coverglass and treated with the Survivin-targeting compound S2 (10 μg/ml) or with the solvent DMSO alone for 15 hours. Cells were stained with the anti-β-Tubulin antibody (green) and anti-Survivin antibody (red). S2 can block cell division at the early stage of mitosis (FIG. 8). […] The microtubules in this case are very short, with one end attached to the centrosome and the other end to the kinetochore of the chromosomes (FIG. 8).
We extended the immunofluorescence studies to define the cell stage in the cells that were arrested by S2 or its analogs. Cells were also stained with anti-Aurora B antibody or anti-Survivin antibody in order to determine whether the localization of Survivin or Aurora B proteins are changed by these small molecules. Upon S2 or S12 treatment, we observed that cells accumulate in a stage with condensed chromosomes but without proper alignment of chromosomes on the mitotic plate (FIG. 9). The percentage of cells that progress to metaphase or beyond was reduced by S2 or S12 treatment (FIG. 9). […] Moreover, localization of Survivin to the midbody was also not affected.
Effects of the Survivin-targeting compound S12 on cell cycle progression was examined by immunofluorescence microscopy. HeLa cells were plated on coverglass and treated with S12 (40 μM) or with the solvent DMSO alone for 15 hours. […]

[10] = system: Jurkat; experiment: Cell cycle analysis, Jurkat; type: cell-based

## O=C(CC1(O)C(=O)Nc2ccc(Br)cc21)c1ccc2ccccc2c1 (stereo not drawn) [S2, 5-bromo-3-hydroxy-[-2-(2-naphthyl)-2-oxoethyl]indolin-2-one]
[1]
  G2/M arrest: caused G2/M arrest
[2]
  DNA synthesis (BrdU incorporation): has no effect on DNA synthesis
[3]
  cell death (sub-G1 population): cause cell death in 12 hours
[4]; 15 hours
  accumulation of cells in the G2/M stage: accumulation of cells in the G2/M stage
[4]
  sub-G1 population (cell death): increase of cells in the sub-G1 population
[5]
  G2/M arrest: caused G2/M arrest
[6]
  sensitivity to cell death (sub-G1 population): more resistant
[7]
  G2/M arrest: caused G2/M arrest
[8]
  inhibition of cell proliferation / cell viability: can inhibit cell proliferation and reduce cell viability in a dose-dependent manner
[9]; 15 hours
  percentage of cells that progress to metaphase or beyond: reduced
[9]; 15 hours, immunofluorescence
  formation of the mitotic spindle: can cause defects in formation of the mitotic spindle
[9]; immunofluorescence
  localization of Survivin or Aurora B to the kinetochore: did not alter
  localization of Survivin to the midbody: not affected
  mitotic stage at which cells accumulate: arrested by S2 in the prometaphase
[10]
  G2/M arrest: caused G2/M arrest

Reference: patent publication US8710068B2, “Method of treating cancer using a survivin inhibitor” (The Trustees Of The University Of Pennsylvania, priority 2009, dated 2014)
